Experimental data from PubChem BioAssay AID540256 (National Center for Advancing Translational Sciences (NCATS), 2011).
Hit rate of the full screen: of about 300,000 compounds, about 3,700 (1.2%) were called active. Inconclusive results, whose numbers are uncertain, are shown with a selection of clear calls. Calls come from the whole dose curve; tested in HEK293 cells. Potencies of inconclusive entries are doubtful fits and often do not repeat.

Test: qHTS for Inhibitors of binding or entry into cells for Lassa Virus; note: nearly all actives have a fitted effect of over 50% in size
Conditions: Lassa virus pseudotype entry inhibition, cell reporter; activity change, negative = inhibition: at 37.9 µM (top of the series) unless noted
% is set by controls: 0 for no effect and ±100 for the full control effect; potency is the fitted concentration of half-maximal effect.

Which Potency does the source give for `CN(C)c1ccc(NC(=O)c2cnsn2)cc1` here?
Its Potency is active: 7.08 µM.

With `O=C(N/N=C/c1cccnc1)c1ccc(NC(=O)c2ccc(Cl)cc2)cc1` as the compound, how does the “activity change, negative = inhibition” value read?
The value was inactive: 4.59%.

With `Cc1ccc(C2CC2C(=O)NNC(=S)Nc2cccc(C)c2)cc1` (stereo not drawn) as the compound, how does the Potency read?
Its Potency is inconclusive: 10.3 µM [inhibitor, partial curve, poor fit].

Which “activity change, negative = inhibition” value does the source give for `Cc1ccc(NC(=O)NC(=O)N(c2ccccc2)S(C)(=O)=O)cc1` here?
Its value is inactive: 20.1%.

Which Potency does the source give for `CCOCCn1c(CN2CCN(c3ccc(OC)cc3)CC2)nc2c1c(=O)n(C)c(=O)n2C` here?
Its Potency is inconclusive: 6.51 µM [inhibitor, single point].

Which “activity change, negative = inhibition” value does the source give for `O=C(CCc1nnc(Cc2ccc(-c3ccccc3)cc2)o1)NCCc1ccccn1` here?
Its value is inactive: -3.07% [at 46.1 µM].

With `COc1ccc(/C=N/Nc2nnc(Cc3ccc(OC)c(OC)c3)c(=O)[nH]2)cc1OC` as the compound, how does the Potency read?
Its Potency is inconclusive: 17.8 µM [inhibitor, partial curve, poor fit].

For `Cc1ccn2c(CN3CCOCC3)c(-c3ccccc3)nc2c1`, which “activity change, negative = inhibition” value is on record?
The value was inactive: 9.67%.

For `N#CC(c1ccccc1)C1CCN(Cc2ccccc2)CC1` (stereo not drawn), which Potency is on record?
The Potency was inconclusive: 4.61 µM [activator, full curve, poor fit].

With `COc1cc(CCC(=O)Nc2ccc(C)c(S(=O)(=O)N(C)C)c2)cc(OC)c1OC` as the compound, how does the Potency read?
Its Potency is inconclusive: 7.94 µM [inhibitor, partial curve, poor fit].

For `CC(=O)c1cccc(NC(=O)C2CC(=O)N(CCc3ccccc3)C2)c1` (stereo not drawn), which “activity change, negative = inhibition” value is on record?
Its value is inactive: -8.03% [at 46.1 µM].

With `CC(C)Cn1c(/C=C/c2ccco2)nc2ccccc21` as the compound, how does the “activity change, negative = inhibition” value read?
Its value is inactive: 2.32%.

With `CCc1ccc2c(CN3CCN(S(=O)(=O)c4ccccc4F)CC3)cc(=O)oc2c1` as the compound, how does the Potency read?
The Potency was inconclusive: 35.5 µM [inhibitor, single point].

Which Potency does the source give for `C/C(CC1CC2=C(CC1(C)C)C(C)(C)CCC2)=N\NC(N)=S` (stereo not drawn) here?
The Potency was inconclusive: 14.6 µM [inhibitor, single point].

Which Potency does the source give for `O=C(Nc1ccccn1)c1c(O)c2cccc3c2n(c1=O)CCC3` here?
The Potency was inconclusive: 2 µM [activator, partial curve, poor fit].

For `CCc1cc2c(=O)n(Cc3ccco3)c(SCC(=O)NCC3CCCO3)nc2s1` (stereo not drawn), which Potency is on record?
The Potency was inconclusive: 0.282 µM [inhibitor, full curve, poor fit].

Which Potency does the source give for `CN(C)c1ccc(C=Nc2ccc(N(C)C)cc2)cc1` here?
Its Potency is inconclusive: 17.8 µM [inhibitor, single point].

For `NC(=O)c1ccccc1OCC(=O)c1ccc(Cl)cc1`, which Potency is on record?
Its Potency is inconclusive: 5.62 µM [inhibitor, single point].

With `[O-][N+]1=c2ccc(Nc3ccccc3)cc2=NC12CCCCC2` as the compound, how does the Potency read?
The Potency was inconclusive: 35.5 µM [inhibitor, single point].

With `O=S1(=O)N[C@@H](Cc2ccccc2)COc2cc(NC3CC3)ccc21` as the compound, how does the Potency read?
The Potency was inconclusive: 0.112 µM [activator, full curve, poor fit].

Which Potency does the source give for `N#C/C(C(=O)NCCc1ccccc1)=C1/N=C(NC(=O)c2cccs2)c2ccccc21` here?
Its Potency is inconclusive: 8.91 µM [inhibitor, partial curve, poor fit].

Which Potency does the source give for `COc1ccc2cc(/C=C/C(=O)N3CCN(CC(=O)N4CCCCCC4)CC3)ccc2c1` here?
Its Potency is inconclusive: 0.562 µM [activator, full curve].

Which Potency does the source give for `C=CCN(c1ccc(C(=O)N2CCCC2)cc1)S(C)(=O)=O` here?
Its Potency is inconclusive: 0.146 µM [activator, full curve, poor fit].

For `CCOc1ccc(NS(=O)(=O)c2ccc(NC(=S)NC(=O)CC(C)C)cc2)cc1`, which Potency is on record?
Its Potency is inconclusive: 22.4 µM [inhibitor, single point].

For `COc1ccc2[nH]c(=O)c(CN(C(=O)c3ccco3)C(C)C)cc2c1`, which “activity change, negative = inhibition” value is on record?
Its value is inactive: -7.15% [at 46.1 µM].

For `Cc1ncoc1C(=O)N1CCCC(C(=O)Nc2cccc(-c3ccc(F)cc3)c2)C1` (stereo not drawn), which Potency is on record?
The Potency was inconclusive: 17.8 µM [inhibitor, single point].

With `O=C(NCC(=O)N1CCN(C(c2ccccc2)c2ccccc2)CC1)c1ccccc1F` as the compound, how does the “activity change, negative = inhibition” value read?
Its value is inactive: -25.4% [at 46.1 µM].

For `Cc1onc(-c2c(Cl)cccc2Cl)c1C(=O)NC1CCCCC1`, which Potency is on record?
The Potency was inconclusive: 20 µM [inhibitor, partial curve, poor fit].

For `Cc1cc(NC(=O)CSc2nnc(-c3cccnc3)n2Cc2ccccc2)no1`, which Potency is on record?
The Potency was inconclusive: 3.16 µM [inhibitor, single point].

For `COc1ccc(CC(=O)NC(=S)Nc2cccc(C)c2)cc1`, which Potency is on record?
Its Potency is inconclusive: 2.24 µM [inhibitor, partial curve, poor fit].

Which Potency does the source give for `COc1cccc(CC(=O)Nc2nc(-c3ccc(F)c(F)c3)cs2)c1` here?
The Potency was inconclusive: 12.6 µM [inhibitor, single point].

With `O=C(Oc1cccc(/C=N/Nc2nc(Nc3ccccc3)nc(N3CCOCC3)n2)c1)c1ccco1` as the compound, how does the Potency read?
Its Potency is inconclusive: 9.2 µM [inhibitor, partial curve].

For `O=C(N/N=C/c1cc([N+](=O)[O-])ccc1O)c1cccc(NC(=O)c2cccc(Cl)c2)c1`, which “activity change, negative = inhibition” value is on record?
Its value is inactive: 11.5%.

With `COc1ccc(Cn2c(C)nc3oc4cc(OC)ccc4c(=O)c3c2=O)cc1` as the compound, how does the Potency read?
Its Potency is inconclusive: 17.8 µM [activator, partial curve, poor fit].

For `CCCOc1ccc(C(=O)NC2CCSc3ccccc32)cc1` (stereo not drawn), which Potency is on record?
Its Potency is inconclusive: 35.5 µM [inhibitor, single point].

With `Cc1cccnc1NC(=O)c1ccc(Cl)c(S(=O)(=O)N2CCCCCC2)c1` as the compound, how does the Potency read?
Its Potency is inconclusive: 1.26 µM [inhibitor, single point].

Which “activity change, negative = inhibition” value does the source give for `COc1ccccc1C(=O)N/C(=C\c1cn(C)c2ccccc12)C(=O)NCCCn1ccnc1` here?
The value was inactive: -13.2% [at 46.1 µM].

Which “activity change, negative = inhibition” value does the source give for `Cn1cc(S(=O)(=O)N2CCN(c3cccc(Cl)c3)CC2)c(=O)n(C)c1=O` here?
The value was inactive: -3.8% [at 46.1 µM].

With `CC(c1ccccc1)C1CC(=O)N(c2ccccc2)C1=O` (stereo not drawn) as the compound, how does the Potency read?
The Potency was inconclusive: 1.26 µM [activator, single point].

With `CN1c2ccccc2C(C)(C)C12CCCC(=O)N2` (stereo not drawn) as the compound, how does the “activity change, negative = inhibition” value read?
The value was inactive: 19.9%.

For `Cc1cccc(CNC(=O)CCc2nnc(C3CCCCC3)o2)c1`, which Potency is on record?
Its Potency is inconclusive: 17.8 µM [activator, partial curve, poor fit].

For `Cc1ccc(CO/N=C/C2=C(Cl)c3ccccc3CC2)cc1`, which Potency is on record?
Its Potency is inconclusive: 6.31 µM [inhibitor, partial curve].

For `COc1ccc(C(c2c(NC(=O)c3ccccc3)sc(C)c2C)N2CCN(CCO)CC2)cc1` (stereo not drawn), which Potency is on record?
The Potency was inconclusive: 3.55 µM [activator, partial curve, poor fit].

With `CCCCN1C(=O)c2ccc(C(=O)Nc3ccc(C)c(S(=O)(=O)N(C)C)c3)cc2C1=O` as the compound, how does the “activity change, negative = inhibition” value read?
The value was inactive: -27.7%.

For `O=C1C2C(C(=O)N1/N=C/c1ccco1)C1C=CC2C12CC2` (stereo not drawn), which “activity change, negative = inhibition” value is on record?
The value was inactive: -1.57%.

For `COC(=O)c1cc(OC)c(OC)cc1NC(=O)Cc1cccs1`, which Potency is on record?
The Potency was inconclusive: 7.94 µM [inhibitor, partial curve, poor fit].

For `CCc1nc2c(c(=O)c3ccccc3n2C)c(=O)n1-c1ccc(F)cc1`, which “activity change, negative = inhibition” value is on record?
The value was inactive: 5.61%.

With `COc1ccc(CCCC(=O)N/N=C/c2ccc(C)cc2)cc1` as the compound, how does the Potency read?
Its Potency is inconclusive: 16.4 µM [inhibitor, partial curve].

With `Cc1ccc(-c2nc3ccccc3o2)cc1NC(=O)Cc1cccs1` as the compound, how does the “activity change, negative = inhibition” value read?
Its value is inactive: 26.8%.

With `COc1ccc(NC(=O)Cn2c(=O)c3cccn3c3ccccc32)cc1Cl` as the compound, how does the Potency read?
The Potency was inconclusive: 31.6 µM [inhibitor, partial curve, poor fit].

For `COc1ccc(NC(=S)NC(C)c2ccncc2)cc1OC` (stereo not drawn), which “activity change, negative = inhibition” value is on record?
The value was inactive: 12.1% [at 46.1 µM].

With `O=C(CN(CC1CCCO1)C(=O)CCC(=O)Nc1ccccn1)NCc1ccccc1` (stereo not drawn) as the compound, how does the Potency read?
The Potency was inconclusive: 1.16 µM [activator, single point].

For `O=C(Nc1cccc(S(=O)(=O)NC2=NCCCCC2)c1)c1cc(-c2ccc(Cl)cc2)nc2ccccc12`, which Potency is on record?
Its Potency is inconclusive: 29.1 µM [inhibitor, single point].

With `CCc1noc(C)c1C(=O)Nc1ccccc1N1CCOCC1` as the compound, how does the “activity change, negative = inhibition” value read?
The value was inactive: 7.63%.

With `COc1ccccc1Oc1nc(-c2ccccc2)cc(C)c1S(C)(=O)=O` as the compound, how does the “activity change, negative = inhibition” value read?
Its value is inactive: -17.9%.

Which Potency does the source give for `O=C(NCC1CCCCC1)c1cccc(-c2ccc(O)cc2)c1` here?
Its Potency is inconclusive: 35.5 µM [inhibitor, single point].

With `CCCCC(=O)NC(NC(=S)N1CCOCC1)C(Cl)(Cl)Cl` (stereo not drawn) as the compound, how does the Potency read?
The Potency was inconclusive: 1.83 µM [activator, partial curve, poor fit].

For `Cc1cccc2sc(NNC(=O)c3cc(-c4cccs4)nc4ccccc34)nc12`, which Potency is on record?
The Potency was inconclusive: 16.4 µM [inhibitor, single point].

For `CC(C)c1ccc(-c2noc(SCC(=O)N3CCCCC3C)n2)cc1` (stereo not drawn), which “activity change, negative = inhibition” value is on record?
Its value is inactive: -28% [at 46.1 µM].

Which Potency does the source give for `Cc1onc(-c2ccccc2)c1C(=O)N1CCN(C(=O)c2ccco2)CC1` here?
Its Potency is inconclusive: 29.1 µM [inhibitor, single point].

With `NC(=O)c1c(-c2cccs2)csc1N` as the compound, how does the Potency read?
Its Potency is inconclusive: 2.91 µM [activator, single point].

With `O=C(CSc1nnc(-c2ccc(F)cc2)c2ccccc12)Nc1ccccc1Cl` as the compound, how does the Potency read?
Its Potency is inconclusive: 1.26 µM [activator, single point].

Which Potency does the source give for `Cc1ccc(-n2ncc3c(N(C)C)ncnc32)cc1Cl` here?
The Potency was inconclusive: 35.5 µM [activator, single point].

Which Potency does the source give for `CN1CCc2c(sc(NC(=O)c3ccc([N+](=O)[O-])o3)c2C(N)=O)C1` here?
Its Potency is inconclusive: 20 µM [inhibitor, partial curve, poor fit].

With `O=C1c2ccccc2C(=O)C1c1ccnc2ccccc12` as the compound, how does the Potency read?
The Potency was inconclusive: 5.8 µM [inhibitor, full curve, poor fit].

Which Potency does the source give for `O=C(NCCO)/C(=C\c1ccc2c(c1)OCO2)NC(=O)c1ccc(Br)cc1` here?
The Potency was inconclusive: 7.08 µM [activator, partial curve, poor fit].

With `CC(/C=N/NC(=O)c1c(Br)cnn1C)=C\c1ccccc1` as the compound, how does the “activity change, negative = inhibition” value read?
Its value is inactive: 16.8%.

For `Cc1ccc(C(=O)Nc2ccccc2Sc2ccccc2)cc1`, which Potency is on record?
Its Potency is inconclusive: 0.0891 µM [inhibitor, full curve, poor fit].
